Among the data in article PMC9965349 (Viruses, 2023) are binding values, retold here.

The chains behind the UniProt entries cited, without tags or fusion partners. Residues count along the entry.
UniProt P02769, residues 25-607: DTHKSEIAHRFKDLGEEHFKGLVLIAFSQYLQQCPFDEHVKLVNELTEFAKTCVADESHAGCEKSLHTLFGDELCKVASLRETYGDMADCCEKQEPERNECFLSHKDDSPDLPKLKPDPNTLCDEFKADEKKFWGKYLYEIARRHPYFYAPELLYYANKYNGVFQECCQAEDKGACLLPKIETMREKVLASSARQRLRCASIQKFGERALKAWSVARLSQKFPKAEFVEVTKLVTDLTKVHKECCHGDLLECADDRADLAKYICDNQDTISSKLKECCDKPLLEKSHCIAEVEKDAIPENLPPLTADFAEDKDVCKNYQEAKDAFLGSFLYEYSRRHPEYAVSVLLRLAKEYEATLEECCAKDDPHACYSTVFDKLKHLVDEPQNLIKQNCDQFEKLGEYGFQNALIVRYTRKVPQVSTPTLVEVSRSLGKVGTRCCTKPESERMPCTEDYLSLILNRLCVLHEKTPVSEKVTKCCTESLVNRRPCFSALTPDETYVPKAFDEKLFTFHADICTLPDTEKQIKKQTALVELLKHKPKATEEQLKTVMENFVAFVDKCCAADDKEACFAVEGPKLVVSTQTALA

Results are given in words; binding and its absence hold for the method and conditions named.

This assay concerns the target BSA (bovine (by the name BSA)) (UniProt P02769). Briefly: ELISA; both purified.

For the molecule WHFNRP [peptide 115042], the binding result was “no binding (tested: peptide 1 μg/mL; BSA coated at 10 μg/mL)”. For FWKEAK [peptide 110616], the binding entry was “no binding (tested: peptide 1 μg/mL; BSA coated at 10 μg/mL)”.
